Laboratory results published in paper PMC7178969.
Results are given in words; binding and its absence hold for the method and conditions named. In cells and extracts the contact can be indirect. Some results given as binding are weak or reduced against the parent protein; the word gives no strength.

Amino acid sequences for entries named in this document (tags omitted). A change or cut given only in a name is not applied to a line headed by its entry.
UniProt P41212: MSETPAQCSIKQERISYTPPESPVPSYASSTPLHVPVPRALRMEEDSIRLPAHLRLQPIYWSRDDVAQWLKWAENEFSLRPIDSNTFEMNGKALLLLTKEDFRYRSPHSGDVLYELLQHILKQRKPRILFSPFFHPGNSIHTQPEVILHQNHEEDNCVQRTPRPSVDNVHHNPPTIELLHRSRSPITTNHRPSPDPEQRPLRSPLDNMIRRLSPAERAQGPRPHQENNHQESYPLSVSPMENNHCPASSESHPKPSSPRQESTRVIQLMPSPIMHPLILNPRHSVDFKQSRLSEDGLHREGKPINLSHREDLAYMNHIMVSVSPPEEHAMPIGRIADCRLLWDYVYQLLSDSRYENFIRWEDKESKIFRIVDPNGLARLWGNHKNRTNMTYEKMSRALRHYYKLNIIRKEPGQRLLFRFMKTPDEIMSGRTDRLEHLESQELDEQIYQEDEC
UniProt P46109: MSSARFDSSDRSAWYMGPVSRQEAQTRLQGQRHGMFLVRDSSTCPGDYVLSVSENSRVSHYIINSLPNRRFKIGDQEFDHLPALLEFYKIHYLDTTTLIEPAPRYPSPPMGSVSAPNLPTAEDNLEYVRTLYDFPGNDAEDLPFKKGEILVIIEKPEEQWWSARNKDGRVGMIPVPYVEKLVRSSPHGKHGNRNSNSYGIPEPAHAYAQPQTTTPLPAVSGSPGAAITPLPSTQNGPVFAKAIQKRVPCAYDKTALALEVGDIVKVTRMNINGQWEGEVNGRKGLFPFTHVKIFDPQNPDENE

How the values were obtained:
Test in all cases: co-IP; 500 ug total protein from HCCLM3-PCDH-CRKL or HCCLM3-PCDH-NC cells in RIPA buffer; anti-CRKL, anti-ETV6 or nonspecific anti-rabbit IgG 1 h at 4 C; protein A/G agarose beads overnight at 4 C; washed 3 times with RIPA; Western blot
[1] = target: E-Twenty Six (ETS) variant gene 6 (ETV6) (human (endogenous in HCCLM3)) (UniProt P41212)
[2] = target: CRKL (v-crk sarcoma virus CT10 oncogene homologue (avian)-like), endogenous in HCCLM3-PCDH cells (human (endogenous in HCCLM3)) (UniProt P46109)
[3] = target: CRKL overexpressed from PCDH-EF1-MCS-T2A-Puro-CRKL in HCCLM3 cells (UniProt P46109)

Substance	binding [1]	binding [2]	binding [3]
CRKL (v-crk sarcoma virus CT10 oncogene homologue (avian)-like), endogenous in HCCLM3-PCDH cells (from UniProt P46109 1-303)	binds		
CRKL overexpressed from PCDH-EF1-MCS-T2A-Puro-CRKL in HCCLM3 cells (from UniProt P46109 1-303)	binds		
E-Twenty Six (ETS) variant gene 6 (ETV6) (from UniProt P41212 1-452)		binds	binds
